Results published in US20200407452A1 (published 2020).
These are yes or no findings as the source states them, for the method shown. Some results given as binding are weak or reduced against the parent protein; the word gives no strength.

Sequences of proteins named here, by UniProt entry; tags and fusion partners are left off. A change or cut given only in a name is not applied to a line headed by its entry. Residues count along the entry.
UniProt P08581: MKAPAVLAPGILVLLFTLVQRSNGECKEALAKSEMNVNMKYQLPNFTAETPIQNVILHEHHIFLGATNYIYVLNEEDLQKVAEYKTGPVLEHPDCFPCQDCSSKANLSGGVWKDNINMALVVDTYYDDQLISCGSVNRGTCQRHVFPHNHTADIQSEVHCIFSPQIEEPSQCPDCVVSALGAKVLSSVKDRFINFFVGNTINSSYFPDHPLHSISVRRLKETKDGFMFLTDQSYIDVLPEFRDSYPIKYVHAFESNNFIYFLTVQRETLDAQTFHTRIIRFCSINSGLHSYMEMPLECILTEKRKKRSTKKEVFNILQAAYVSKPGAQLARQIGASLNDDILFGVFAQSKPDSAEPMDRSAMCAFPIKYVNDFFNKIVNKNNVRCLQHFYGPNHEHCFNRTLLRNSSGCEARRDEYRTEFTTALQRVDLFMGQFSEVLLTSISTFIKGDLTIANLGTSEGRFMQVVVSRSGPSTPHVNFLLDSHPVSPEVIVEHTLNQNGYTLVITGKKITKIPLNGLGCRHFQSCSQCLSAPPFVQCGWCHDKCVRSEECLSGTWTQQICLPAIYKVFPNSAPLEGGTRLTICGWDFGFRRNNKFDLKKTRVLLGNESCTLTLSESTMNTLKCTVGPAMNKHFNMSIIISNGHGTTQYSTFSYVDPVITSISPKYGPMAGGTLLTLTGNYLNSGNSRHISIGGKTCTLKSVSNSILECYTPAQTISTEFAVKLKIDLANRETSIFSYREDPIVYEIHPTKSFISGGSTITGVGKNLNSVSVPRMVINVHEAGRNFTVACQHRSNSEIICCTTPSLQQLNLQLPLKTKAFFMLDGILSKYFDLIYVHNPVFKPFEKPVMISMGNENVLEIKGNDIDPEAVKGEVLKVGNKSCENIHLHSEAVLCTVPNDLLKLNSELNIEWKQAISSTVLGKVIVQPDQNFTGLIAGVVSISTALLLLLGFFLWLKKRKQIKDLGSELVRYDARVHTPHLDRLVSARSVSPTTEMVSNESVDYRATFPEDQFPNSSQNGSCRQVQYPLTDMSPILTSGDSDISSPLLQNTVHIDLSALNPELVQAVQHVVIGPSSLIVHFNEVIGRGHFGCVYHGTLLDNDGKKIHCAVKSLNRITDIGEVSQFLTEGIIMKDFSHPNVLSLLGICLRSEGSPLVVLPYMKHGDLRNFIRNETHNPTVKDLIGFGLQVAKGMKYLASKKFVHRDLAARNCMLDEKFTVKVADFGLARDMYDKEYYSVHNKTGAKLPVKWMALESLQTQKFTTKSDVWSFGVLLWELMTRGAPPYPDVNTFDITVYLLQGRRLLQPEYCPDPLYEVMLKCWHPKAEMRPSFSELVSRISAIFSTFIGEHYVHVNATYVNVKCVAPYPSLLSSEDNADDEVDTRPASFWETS
SEMA-PSI-IPT 1-2 (MET ECD lacking IPT domains 3 and 4): residues 25-741 of P08581
SEMA-PSI (MET ECD lacking IPT domains 1-4): residues 25-562 of P08581
isolated SEMA domain of human MET: residues 27-515 of P08581

Assays:
Assay in all cases: ELISA, engineered MET protein coated
[1] = target: SEMA-PSI (MET ECD lacking IPT domains 1-4) (human) (UniProt P08581)
[2] = target: SEMA-PSI-IPT 1-2 (MET ECD lacking IPT domains 3 and 4) (human) (UniProt P08581)
[3] = target: isolated SEMA domain of human MET (human) (UniProt P08581)

binding [1] | binding [2] | binding [3] | Binder
binds | binds |  | 76H10 chimeric llama-human IgG1 mAb (antibody, V domains shown, human IgG1 CH1-CH2-CH3 and human CL lambda) VH: QLQLVESGGGLVQPGGSLRVSCTASGFTFNTYYMTWVRQAPGKGLEWVSDINSGGGTYYADSVKGRFTISRDNAKNTLYLQMNSLKPEDTALYYCVRVRIWPVGYDYWGQGTQVTVSS VL: QAVVTQEPSLSVSPGGTVTLTCGLSSGSVTTSNYPGWFQQTPGQAPRTLIYNTNNRHSGVPSRFSGSISGNKAALTITGAQPEDEADYYCSLYTGSYTTVFGGGTHLTVL
binds | binds |  | 71G3 chimeric llama-human IgG1 mAb (antibody, V domains shown, human IgG1 CH1-CH2-CH3 and human CL lambda; also called 71G3 Human IgG1/lambda) VH: QVQLVESGGGLVQPGGSLRVSCAASGFTFSTYYMSWVRQAPGKGLEWVSDIRTDGGTYYADSVKGRFTMSRDNAKNTLYLQMNSLKPEDTALYYCARTRIFPSGYDYWGQGTQVTVSS VL: QAVVTQEPSLSVSPGGTVTLTCGLSSGSVTTSNYPGWFQQTPGQAPRTLIYNTNSRHSGVPSRFSGSISGNKAALTIMGAQPEDEADYYCSLYPGSTTVFGGGTHLTVL
binds | binds | binds | 71D6 chimeric llama-human IgG1 mAb (antibody, V domains shown, human IgG1 CH1-CH2-CH3 and human CL lambda; also called 71D6 Human IgG1/lambda) VH: ELQLVESGGGLVQPGGSLRLSCAASGFTFSSYGMSWVRQAPGKGLEWVSAINSYGGSTSYADSVKGRFTISRDNAKNTLYLQMNSLKPEDTAVYYCAKEVRADLSRYNDYESYDYWGQGTQVTVSS VL: QPVLNQPSALSVTLGQTAKITCQGGSLGARYAHWYQQKPGQAPVLVIYDDDSRPSGIPERFSGSSSGGTATLTISGAQAEDEGDYYCQSADSSGSVFGGGTHLTVL
binds | binds | binds | 71C3 chimeric llama-human IgG1 mAb (antibody, V domains shown, human IgG1 CH1-CH2-CH3 and human CL lambda) VH: QLQLVESGGGLVQPGGSLRLSCAASGFTFSSHAMSWVRQAPGKGLEWVSAINSGGGSTSYADSVKGRFTISRDNAKNTLYLQMNSLKPEDTAVYYCAKELRFDLARYTDYEAWDYWGQGTQVTVSS VL: SYELTQPSALSVTLGQTAKITCQGGSLGSSYAHWYQQKPGQAPVLVIYDDDSRPSGIPERFSGSSSGGTATLTISGAQAEDEGDYYCQSADSSGNAAVFGGGTHLTVL
binds | binds | binds | 71D4 chimeric llama-human IgG1 mAb (antibody, V domains shown, human IgG1 CH1-CH2-CH3 and human CL lambda) VH: ELQLVESGGGLVQPGGSLRLSCAASGFTFSGYGMSWVRQAPGKGLEWVSDINSGGGSTSYADSVKGRFTISRDNAKNTLYLQMNSLKPEDTAVYYCAKDMRLYLARYNDYEAWDYWGQGTQVTVSS VL: SSALTQPSALSVTLGQTAKITCQGGSLGSSYAHWYQQKPGQAPVLVIYDDDSRPSGIPERFSGSSSGGTATLTISGAQAEDEGDYYCQSADSSGNAAVFGGGTHLTVL
binds | binds | binds | 71A3 chimeric llama-human IgG1 mAb (antibody, V domains shown, human IgG1 CH1-CH2-CH3 and human CL lambda) VH: EVQLVESGGGLVQPGGSLRLSCAASGFSFKDYDITWVRQAPGKGLEWVSTITSRSGSTSYVDSVKGRFTISGDNAKNTLYLQMNSLKPEDTAVYYCAKVYATTWDVGPLGYGMDYWGKGTLVTVSS VL: SYELTQPSALSVTLGQTAKITCQGGSLGSSYAHWYQQKPGQAPVLVIYDDDSRPSGIPERFSGSSSGGTATLTISGAQAEDEGDYYCQSADSSGNAAVFGGGTHLTVL
binds | binds | binds | 71G2 chimeric llama-human IgG1 mAb (antibody, V domains shown, human IgG1 CH1-CH2-CH3 and human CL lambda; also called 71G2 Human IgG1/lambda) VH: EVQLQESGGGLVQPGGSLRLSCAASGFTFSIYDMSWVRQAPGKGLEWVSTINSDGSSTSYVDSVKGRFTISRDNAKNTLYLQMNSLKPEDTAVYYCAKVYGSTWDVGPMGYGMDYWGKGTLVTVSS VL: SSALTQPSALSVSLGQTARITCQGGSLGSSYAHWYQQKPGQAPVLVIYGDDSRPSGIPERFSGSSSGGTATLTISGAQAEDEDDYYCQSTDSSGNTVFGGGTRLTVL
binds | binds |  | 76G7 chimeric llama-human IgG1 mAb (antibody, V domains shown, human IgG1 CH1-CH2-CH3 and human CL lambda) VH: QVQLVESGGNLVQPGGSLRLSCAASGFTFSNYYMSWVRQAPGKGLEWVSDIYSDGSTTWYSDSVKGRFTISRDNAKNTLSLQMNSLKSEDTAVYYCARVKIYPGGYDAWGQGTQVTVSS VL: QAGLTQPPSVSGSPGKTVTISCAGNSSDVGYGNYVSWYQQFPGMAPKLLIYLVNKRASGITDRFSGSKSGNTASLTISGLQSEDEADYYCASYTGSNNIVFGGGTHLTVL
binds | binds |  | 71G12 chimeric llama-human IgG1 mAb (antibody, V domains shown, human IgG1 CH1-CH2-CH3 and human CL kappa) VH: QVQLQESGGDLVQPGGSLRVSCVVSGFTFSRYYMSWVRQAPGKGLEWVSSIDSYGYSTYYTDSVKGRFTISRDNAKNTLYLQMNSLKPEDTALYYCARAKTTWSYDYWGQGTQVTVSS VL: EIVLTQSPSSVTASVGGKVTINCKSSQSVFIASNQKTYLNWYQQRPGQSPRLVISYASTRESGIPDRFSGSGSTTDFTLTISSVQPEDAAVYYCQQAYSHPTFGQGTKVELK
binds | binds | binds | 74C8 chimeric llama-human IgG1 mAb (antibody, V domains shown, human IgG1 CH1-CH2-CH3 and human CL lambda) VH: EVQLVESGGGLVQPGGSLRLSCAASGFTFRNYHMSWVRQVPGKGFEWISDINSAGGSTYYADSVKGRFTISRDNAKNTLYLEMNSLKPEDTALYYCARVNVWGVNYWGKGTLVSVSS VL: QTVVTQEPSLSVSPGGTVTLTCGLSSGSVTTSNYPGWFQQTPGQAPRTLIYNTNSRHSGVPSRFSGSISGNKAALTITGAQPEDEADYYCSLYPGSYTNVFGGGTHLTVL
binds | binds | binds | 72F8 chimeric llama-human IgG1 mAb (antibody, V domains shown, human IgG1 CH1-CH2-CH3 and human CL lambda) VH: ELQLVESGGGLVQPGGSLRLSCAASGFTFSNYVMSWVRQAPGKGLEWVSDTNSGGSTSYADSVKGRFTISRDNAKNTLYLQMNSLKPEDTALYYCARSFFYGMNYWGKGTQVTVSS VL: QSALTQPPSLSASPGSSVRLTCTLSSGNNIGSYDISWYQQKAGSPPRYLLNYYTDSRKHQDSGVPSRFSGSKDASANAGLLLISGLQPEDEADYYCSAYKSGSYRWVFGGGTHVTVL
